Data as given in PubChem BioAssay AID686943 (Drosophila RNAi Screening Center, 2013)
The screen tested about 23,000 reagents; this is a random part of those with a known target gene and a result. 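Extra replicates exist only for a retested subset of genes; insulin dose and duration not given; both raised and lowered dpERK matter.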 Further read-outs or replicates are left out here. The record does not give: the amount of reagent, the time to read-out.

Screen: 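Knockdowns that increase or decrease active ERK after insulin receptor stimulation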 (primary screen)
Cell system: Drosophila S2R+ haemocyte-like cells expressing YFP-tagged ERK (Rolled)
Reagent: long dsRNA against Drosophila genes
Challenge: insulin stimulation versus unstimulated cells; dose and duration not given
Detection: 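Antibody staining for doubly phosphorylated ERK divided by ERK-YFP signal, as plate z-scores, in insulin-treated and untreated cells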
Reading the numbers: replicate 1, z-score of dpERK with insulin and replicate 2, z-score of dpERK with insulin: higher = more active ERK per ERK-YFP after insulin

Cul3 [SID104183329] scored replicate 1, z-score of dpERK with insulin 0.61; replicate 2, z-score of dpERK with insulin 0.5.
With knock-down of Cul3 [SID104201245] the results were replicate 1, z-score of dpERK with insulin -0.11; replicate 2, z-score of dpERK with insulin 0.5.
Against Gp210 [SID104184653], the entry reads replicate 1, z-score of dpERK with insulin 0.27; replicate 2, z-score of dpERK with insulin 1.3.
Knock-down of Gp210 [SID104184692] resulted in: replicate 1, z-score of dpERK with insulin 0.7; replicate 2, z-score of dpERK with insulin 0.04.
Silencing of Cog1 [SID104195453] gave: replicate 1, z-score of dpERK with insulin -0.14; replicate 2, z-score of dpERK with insulin -0.24.

Records above whose target name starts with C or c (3):
Cul3 [SID104183329] — replicate 1, z-score of dpERK with insulin = 0.61; replicate 2, z-score of dpERK with insulin = 0.5
Cul3 [SID104201245] — replicate 1, z-score of dpERK with insulin = -0.11; replicate 2, z-score of dpERK with insulin = 0.5
Cog1 [SID104195453] — replicate 1, z-score of dpERK with insulin = -0.14; replicate 2, z-score of dpERK with insulin = -0.24

Additional entries follow:
Against CG2680 [SID104198258] the deposit lists replicate 1, z-score of dpERK with insulin -0.21; replicate 2, z-score of dpERK with insulin 0.8.
JMJD5 [SID104188164] showed replicate 1, z-score of dpERK with insulin -0.41; replicate 2, z-score of dpERK with insulin -0.29.
Against Ir41a [SID104184522], the entry reads replicate 1, z-score of dpERK with insulin -1.45; replicate 2, z-score of dpERK with insulin -0.89.
Knock-down of Ir41a [SID104184667] resulted in: replicate 1, z-score of dpERK with insulin 0.36; replicate 2, z-score of dpERK with insulin -0.05.
Silencing of CG16995 [SID104180272] came out at: replicate 1, z-score of dpERK with insulin 0.5; replicate 2, z-score of dpERK with insulin -0.02.
Against CG12934 [SID104186039] the deposit lists replicate 1, z-score of dpERK with insulin -0.32; replicate 2, z-score of dpERK with insulin 0.88.
After knock-down of ouib [SID104194168], the record shows replicate 1, z-score of dpERK with insulin -0.57; replicate 2, z-score of dpERK with insulin -0.83.
